In publication doi:10.1101/2021.03.26.437179:
No constants are given. Whether binding was seen depends on the method and setting. For part of these data: Binding seen in cells or lysates may run through a third protein. Some binding calls cover weakened binding; strength is not graded here. Tags and fused reporters may be left off the sequences shown.

Amino acid sequences for entries named in this document (tags omitted). A change or cut given only in a name is not applied to a line headed by its entry.
UniProt P05804: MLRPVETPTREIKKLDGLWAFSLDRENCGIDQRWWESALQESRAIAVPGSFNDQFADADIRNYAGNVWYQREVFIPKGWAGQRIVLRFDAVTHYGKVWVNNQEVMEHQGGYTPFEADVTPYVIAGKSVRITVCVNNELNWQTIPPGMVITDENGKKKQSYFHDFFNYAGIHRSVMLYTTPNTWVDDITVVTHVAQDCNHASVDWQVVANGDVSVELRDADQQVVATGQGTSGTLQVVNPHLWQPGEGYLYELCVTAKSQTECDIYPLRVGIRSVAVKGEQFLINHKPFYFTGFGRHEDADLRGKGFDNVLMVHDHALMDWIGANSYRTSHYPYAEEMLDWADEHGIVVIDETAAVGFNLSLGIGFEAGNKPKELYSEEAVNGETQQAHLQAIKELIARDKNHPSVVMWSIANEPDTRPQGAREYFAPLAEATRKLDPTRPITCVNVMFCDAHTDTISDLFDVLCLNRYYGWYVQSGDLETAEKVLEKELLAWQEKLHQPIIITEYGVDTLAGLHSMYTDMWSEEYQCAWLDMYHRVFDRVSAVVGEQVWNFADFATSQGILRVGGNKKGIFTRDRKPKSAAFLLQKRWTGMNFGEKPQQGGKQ
UniProt Q38851: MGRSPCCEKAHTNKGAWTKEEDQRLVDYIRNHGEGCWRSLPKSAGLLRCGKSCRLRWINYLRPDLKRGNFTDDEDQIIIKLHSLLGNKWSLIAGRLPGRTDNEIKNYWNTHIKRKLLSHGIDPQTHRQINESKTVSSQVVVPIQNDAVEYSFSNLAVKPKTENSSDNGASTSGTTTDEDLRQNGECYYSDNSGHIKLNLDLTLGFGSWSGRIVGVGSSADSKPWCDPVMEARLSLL

Legend:
[1] = target: T1, PUB25-ccLUC (Arabidopsis thaliana) (UniProt Q9LT79); experiment: split reporter
T1 sequence: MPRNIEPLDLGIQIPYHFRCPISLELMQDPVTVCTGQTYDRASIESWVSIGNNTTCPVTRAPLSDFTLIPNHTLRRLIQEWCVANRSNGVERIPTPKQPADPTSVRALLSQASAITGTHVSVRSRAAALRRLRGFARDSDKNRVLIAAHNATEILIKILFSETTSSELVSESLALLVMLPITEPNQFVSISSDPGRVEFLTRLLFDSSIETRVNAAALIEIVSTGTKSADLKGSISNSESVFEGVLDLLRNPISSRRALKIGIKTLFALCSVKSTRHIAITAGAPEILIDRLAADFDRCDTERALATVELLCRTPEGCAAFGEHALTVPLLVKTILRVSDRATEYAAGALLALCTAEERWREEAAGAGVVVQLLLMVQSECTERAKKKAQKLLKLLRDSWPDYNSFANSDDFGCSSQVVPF

[2] = target: T2, PUB26-ccLUC (Arabidopsis thaliana) (UniProt Q9FXA4); experiment: split reporter
T2 sequence: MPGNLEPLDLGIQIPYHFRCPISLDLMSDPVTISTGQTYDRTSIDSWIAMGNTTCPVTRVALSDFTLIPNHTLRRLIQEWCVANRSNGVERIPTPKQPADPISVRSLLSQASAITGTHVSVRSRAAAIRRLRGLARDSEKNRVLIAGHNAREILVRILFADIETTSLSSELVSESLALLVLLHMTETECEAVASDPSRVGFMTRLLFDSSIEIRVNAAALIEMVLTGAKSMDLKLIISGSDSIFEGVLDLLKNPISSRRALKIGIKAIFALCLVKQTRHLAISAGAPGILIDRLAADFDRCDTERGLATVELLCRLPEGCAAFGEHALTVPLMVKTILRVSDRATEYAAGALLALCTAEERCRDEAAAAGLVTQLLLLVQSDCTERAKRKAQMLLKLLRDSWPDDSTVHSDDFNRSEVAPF

[3] = target: T3, BD-PUB25 (Arabidopsis thaliana) (UniProt Q9LT79); experiment: two-hybrid
T3 sequence: T1 sequence

[4] = target: T4, BD-PUB26 (Arabidopsis thaliana) (UniProt Q9FXA4); experiment: two-hybrid
T4 sequence: T2 sequence

| binding [1] | binding [2] | binding [3] | binding [4] | Substance |
| --- | --- | --- | --- | --- |
| no binding | no binding | – | – | GUS-GZnLUC (from UniProt P05804 1-603) |
| – | – | binds | binds | MYB6 (1-111) (from UniProt Q38851 1-111) (domain or fragment) |
| binds | binds | – | – | MYB6-GZnLUC (from UniProt Q38851 1-236) |
